Our source for the GFP- values is the supplement of paper PMC11060735.

Structures are written as SMILES. Values joined by “and” are separate entries in the source; they are usually repeats but may differ in a detail not shown here. Equal entries are not always repeated. Structures can show the parent of a compound that is named as a salt. ± gives the standard deviation of the averaged measurements. The full ranking holds about 1,800 compounds; the median of “GFP- (p16Ink4a-) cell count relative to negative-control wells” is about 0.99, and the lowest 2% start at about 0.5. The list shows a part of the results.

The test concerns mouse p16Ink4a+/- lung fibroblasts (INKBRITE, bleomycin-injured). As to the kind of experiment: GFP- (p16Ink4a-) cell count relative to negative-control wells (fold of vehicle); higher = more p16Ink4a- cells surviving. As to conditions: 1 µM; 3 days.
`C[C@](O)(COc1ccc(C#N)cc1)C(=O)Nc1ccc(C#N)c(C(F)(F)F)c1` gave a GFP- of 1.08.

In turn, `CCC(COC(=O)c1cc(OC)c(OC)c(OC)c1)(c1ccccc1)N(C)C` (stereo unspecified) [Trimebutine] displayed a GFP- of 1.

Compound `C=CC[C@]1(O)CC[C@H]2[C@@H]3CCC4=CC(=O)CCC4=C3C=C[C@@]21C` [Altrenogest] gave a GFP- of 0.943.

With `N[C@@H]1C[C@H]1c1ccccc1` [Tranylcypromine (2-PCPA) HCl], the GFP- was 0.967 ± 0.083.

`O=c1ccc2cc(O[C@@H]3O[C@H](CO)[C@@H](O)[C@H](O)[C@H]3O)c(O)cc2o1` [Esculin]: the GFP- turned out to be 1.19.

For the compound `NCC(O)c1ccc(O)cc1` (racemic) [(¬±)-octopamine Hydrochloride, Octopamine Hydrochloride], the GFP- is 1.

On to `Cc1cccc(C)c1NC1=NCCCS1` [Xylazine Hydrochloride, Xylazine], for which the GFP- was 1.04.

`C1=C2CCCN[C@H]2[C@@H]2C[C@H]1[C@H]1CCCCN1C2` [Aloperine] had a GFP- of 0.98.

With `CNCC(=O)c1ccc(O)c(O)c1` [Adrenolone Hydrochloride], the GFP- came out at 1.05.

`CC(C)N(CCNC(=O)CN1CCCC1=O)C(C)C` [Pramiracetam] had a GFP- of 1.12.

The compound `CCOc1ccccc1-n1c(C(C)N2CCN(C(=O)COc3ccc(Cl)cc3)CC2)nc2ccccc2c1=O` (stereo unspecified) [Erastin] gave a GFP- of 0.31.

`COC(=O)C1=CCCN(C)C1` [Arecoline] gave a GFP- of 0.954.

`Cc1cc2c(C(C)C)c(O)c(O)c(C=O)c2c(O)c1-c1c(C)cc2c(C(C)C)c(O)c(O)c(C=O)c2c1O` [Gossypol]: the GFP- is 0.665 and 0.706.

For `CCN(C)C(=O)Oc1cccc([C@H](C)N(C)C)c1` [Rivastigmine], the GFP- amounted to 1.

`Cc1ccc(-n2nccn2)c(C(=O)N2CCN(c3nc4cc(Cl)ccc4o3)CC[C@H]2C)c1` [Suvorexant] had a GFP- of 1.13.

Turning to `CCCC[N+]1(C)[C@@H]2C[C@@H](OC(=O)[C@H](CO)c3ccccc3)C[C@H]1[C@@H]1O[C@@H]12` (stereo partly specified) [Scopolamine butylbromide], the GFP- worked out at 1.13.

Consider `COc1ccc(C(=O)N2CCCC2=O)cc1` [Aniracetam], for which the GFP- worked out at 0.968.

For the compound `O=S(=O)(F)Cc1ccccc1`, the GFP- came to 0.899.

The compound `Cn1cc(C2=C(c3cn(C4CCN(Cc5ccccn5)CC4)c4ccccc34)C(=O)NC2=O)c2ccccc21` [Enzastaurin] gave a GFP- of 0.807.

Take `CN1[C@@H]2C[C@@H](O)C[C@H]1[C@@H]1O[C@@H]12` [Scopine HCl]: the GFP- is 1.11 and 1.08.

As to `C=C1C[C@@H]2[C@H](CC[C@]3(C)C(=O)CC[C@@H]23)[C@@]2(C)C=CC(=O)C=C12` [Exemestane], the GFP- was found to be 1.13.

Compound `NCCc1c[nH]c2ccc(O)cc12` [Serotonin Hydrochloride] registered a GFP- of 1.06.

The compound `O=C1CC[C@@]2(O)[C@H]3Cc4ccc(O)c5c4[C@@]2(CCN3CC2CC2)[C@H]1O5` [Naltrexone;  _x000D_  naltrexone depot] had a GFP- of 0.877.

As to `CCC1=C[C@@H]2CN3CCc4c([nH]c5ccccc45)[C@@](C(=O)OC)(C2)[C@@H]13` [Catharanthine], the GFP- amounted to 1.02.

On to `CN1CCC(c2c[nH]c3ccc(O)cc23)CC1`, for which the GFP- is 1.02.

Regarding `O=C1CCC[C@@H]2[C@H]3CCCN4CCC[C@@H](CN12)[C@@H]34` [(+)-Matrine], the GFP- turned out to be 0.954.

In turn, `NC(=O)CN1CCCC1=O` [Piracetam] came in with a GFP- of 0.979.

With `C[C@@H]1CC[C@@]2(OC1)O[C@H]1C[C@H]3[C@@H]4CC=C5C[C@@H](O[C@@H]6O[C@H](CO)[C@@H](O[C@@H]7O[C@@H](C)[C@H](O)[C@@H](O)[C@H]7O)[C@H](O)[C@H]6O[C@@H]6O[C@@H](C)[C@H](O)[C@@H](O)[C@H]6O)CC[C@]5(C)[C@H]4CC[C@]3(C)[C@H]1[C@@H]2C` [Dioscin], the GFP- stood at 1.03.

On to `CN1C2CCC1CC(OC(=O)[C@H](CO)c1ccccc1)C2` (stereo partly specified) [Hyoscyamine], for which the GFP- was found to be 1.21.

On to `Cc1cccc(C(C)c2c[nH]cn2)c1C` (stereo unspecified) [Medetomidine HCl], for which the GFP- is 1.16.

With `CN1[C@@H]2CC[C@H]1C[C@@H](OC(=O)C(CO)c1ccccc1)C2` (stereo partly specified) [Atropine], the GFP- came to 0.843.

Consider `CC(=O)OCC1=C(C(=O)O)N2C(=O)[C@H](N)[C@H]2SC1` [7-Aminocephalosporanic acid], for which the GFP- stood at 1.1.

As to `CCC1(c2cccc(O)c2)CCCCN(C)C1` (stereo unspecified) [Meptazinol HCl], the GFP- came out at 1.

In turn, `C[C@@H]1O[C@@H](O[C@H]2C[C@@H](O)[C@]3(CO)[C@H]4[C@H](O)C[C@]5(C)[C@@H](C6=CC(=O)OC6)CC[C@]5(O)[C@@H]4CC[C@]3(O)C2)[C@H](O)[C@H](O)[C@H]1O` [Ouabain] had a GFP- of 0.953.

Regarding `C/C(=C\c1csc(C)n1)[C@@H]1C[C@@H]2O[C@@H]2CCC[C@H](C)[C@H](O)[C@@H](C)C(=O)C(C)(C)[C@@H](O)CC(=O)O1` [Epothilone A], the GFP- was determined as 0.423.

The compound `C=CCN1CC[C@]23c4c5ccc(O)c4O[C@H]2C(=O)CC[C@@]3(O)[C@H]1C5` [Naloxone] gave a GFP- of 1.04.

`COc1cc(OC)c(OC)cc1C=O` [Asarylaldehyde] showed a GFP- of 0.887.

`Cc1cc(C(=O)CN2CCCC2)c(C)n1-c1ccc(F)cc1` registered a GFP- of 0.961.

In turn, `C[C@]12CC[C@H](O)C[C@@H]1CC[C@@H]1[C@@H]2CC[C@]2(C)C(=O)CC[C@@H]12` [Epiandrosterone] returned a GFP- of 0.976.

Consider `CC(=O)Nc1ccc(Cc2ccc(NC(C)=O)cc2)cc1`, for which the GFP- was 0.997.

With `Nc1nc(N)nc(NC2CC2)n1` [Cyromazine], the GFP- turned out to be 1.1.

Regarding `c1ccc2c(c1)sc1ccccc12` [Dibenzothiophene], the GFP- is 0.972.

Turning to `CC(O)(CS(=O)(=O)c1ccc(F)cc1)C(=O)Nc1ccc(C#N)c(C(F)(F)F)c1` (stereo unspecified) [(r)-bicalutamide, Bicalutamide], the GFP- is 0.96.

Take `Cc1cc(O)ccc1Cl` [Chlorocresol]: the GFP- is 0.925.

`COc1cc(-n2c(=S)[nH]c3ccccc3c2=O)c(Cl)cc1Cl` [Mdivi-1]: the GFP- was 1.12.

As to `Cc1cc(C(C#N)c2ccc(Cl)cc2)c(Cl)cc1NC(=O)c1cc(I)cc(I)c1O` (stereo unspecified) [Closantel], the GFP- is 0.99 and 0.986.

Regarding `Cc1cccc([C@H](C)c2c[nH]cn2)c1C` [Dexmedetomidine], the GFP- turned out to be 1.06.

With `O=C(Oc1ccc([N+](=O)[O-])cc1)N1CCC(C(O)(c2ccc3c(c2)OCO3)c2ccc3c(c2)OCO3)CC1`, the GFP- amounted to 0.875.

The compound `COc1ccc(CC2NCCc3cc(OC)c(OC)cc32)cc1OC` (stereo unspecified) [Tetrahydropapaverine HCl] registered a GFP- of 0.842.

`O=P1(NCCCl)OCCCN1CCCl` (stereo unspecified) [Ifosfamide] came in with a GFP- of 1.04.

For `COc1ccc(C(CN(C)C)C2(O)CCCCC2)cc1` (stereo unspecified) [Venlafaxine, Venlafaxine Hydrochloride], the GFP- stood at 1.08.

Consider `O=C(O)c1nn(Cc2ccc(Cl)cc2Cl)c2ccccc12` [Lonidamine], for which the GFP- is 1.01.

With `C/C=C(\C)C(=O)N[C@@H](c1ccccc1)[C@@H](O)C(=O)O[C@H]1C[C@@]2(O)[C@@H](OC(=O)c3ccccc3)[C@@H]3[C@]4(OC(C)=O)CO[C@@H]4C[C@H](O)[C@@]3(C)C(=O)[C@H](OC(C)=O)C(=C1C)C2(C)C` [Cephalomannine], the GFP- is 0.683.

Take `C[N+]1(C)[C@@H]2C[C@@H](OC(=O)[C@H](CO)c3ccccc3)C[C@H]1[C@@H]1O[C@@H]12` [Methscopolamine Bromide]: the GFP- was 1.03.

`Oc1nc2ccc(Cl)cc2c(N[C@@H]2CN3CCC2CC3)c1-c1nc2ccccc2[nH]1` had a GFP- of 0.944.

Compound `C[N+](C)(C)CCCCCCCCCC[N+](C)(C)C` [Decamethonium] registered a GFP- of 0.868.

`C[C@@H]1[C@H](O)[C@@H](C)/C=C/C=C/CC/C=C/C=C/C=C/C=C/[C@H](O[C@H]2O[C@@H](C)[C@H](O)[C@@H](N)[C@H]2O)C[C@@H]2O[C@](O)(C[C@@H](O)[C@H](O)CC[C@@H](O)C[C@@H](O)C[C@@H](O)CC(=O)O[C@H]1C)C[C@H](O)[C@H]2C(=O)O` [Nystatin (Fungicidin)]: the GFP- is 0.951.

In turn, `CC(C)(C)[C@]1(O)C[C@@H]2OC(=O)C[C@@]23C(=O)O[C@@H]2OC(=O)[C@H](O)C213` (stereo partly specified) [Bilobalide] displayed a GFP- of 0.96.

In turn, `C=C[C@H]1CN2CCC1C[C@H]2[C@H](O)c1ccnc2ccccc12` (stereo partly specified) [Cinchonidine] came in with a GFP- of 1.09.

Take `Cc1ccccc1-n1c(Cn2ncc3c(N)ncnc32)nc2cccc(C)c2c1=O`: the GFP- turned out to be 1.04.

With `CN(C)Cc1c[nH]c2ccccc12` [Gramine], the GFP- worked out at 1.12.

On to `CCN1CCN(C(=O)Cc2ccc(Nc3ncc(F)c(Nc4ccc(C(=O)Nc5ccccc5Cl)cc4)n3)cc2)CC1` [Aurora A Inhibitor I], for which the GFP- amounted to 0.961 ± 0.071.

As to `CN1CCc2cc3c(cc2[C@H]1[C@@H]1OC(=O)c2c1ccc1c2OCO1)OCO3` [Bicuculline], the GFP- came out at 1.12.

Compound `CN1CCCCC1Cn1cc(C(=O)c2cc([N+](=O)[O-])ccc2I)c2ccccc21` (stereo unspecified) gave a GFP- of 1.09.

In turn, `C[C@]12CC[C@H](O)CC1=CC[C@@H]1[C@@H]2CC[C@]2(C)C(=O)CC[C@@H]12` [Prasterone] showed a GFP- of 1.19.

Compound `CC[C@H](C(=O)[C@H](C)[C@@H](O)[C@@H](C)[C@@H]1O[C@@H]([C@@H](CC)C(=O)O)CC[C@H]1C)[C@H]1O[C@]2(C=C[C@@H](O)[C@]3(CC[C@@](C)([C@H]4CC[C@](O)(CC)[C@H](C)O4)O3)O2)[C@H](C)C[C@H]1C` [Salinomycin] yielded a GFP- of 0.714.

Compound `C[C@]12CC[C@H]3[C@@H](CC[C@@]45O[C@@H]4C(O)=C(C#N)C[C@]35C)[C@@H]1CC[C@@H]2O` [Trilostane] displayed a GFP- of 0.98.

With `Cc1cc(SCc2sc(-c3ccc(C(F)(F)F)c(F)c3)nc2C)ccc1OCC(=O)O`, the GFP- was 1.02.

On to `CC(C)[C@]12O[C@H]1[C@@H]1O[C@]13[C@]1(O[C@H]1C[C@H]1C4=C(CC[C@@]13C)C(=O)OC4)[C@@H]2O` [Triptolide], for which the GFP- is 0.366.

The compound `CCN(CC)C(=O)c1ccc(C2=CC3(CCNCC3)Oc3cccc(O)c32)cc1` returned a GFP- of 0.95.

As for `CCc1c(C(=O)C(N)=O)c2c(OCC(=O)O)cccc2n1Cc1ccccc1` [Varespladib], the GFP- is 1.27.
